Data published in PubChem BioAssay AID540256 (National Center for Advancing Translational Sciences (NCATS), 2011).
The whole screen tested about 300,000 compounds, of which about 3,700 (1.2%) were called active. The shares of active, inactive and inconclusive entries below differ from those in the screen. Calls follow the shape of the full dose curve; tested in HEK293 cells. Potencies beside an inconclusive call are fits to weak or partial responses and may not hold up.

experiment: qHTS for Inhibitors of binding or entry into cells for Lassa Virus; details: Lassa virus pseudotype entry inhibition, cell reporter; series mostly up to 37.9 µM; also: nearly all actives have a fitted effect of over 50% in size
Potency is read from the fitted curve at half-maximal effect.

Compound | Potency
CCc1ccc2[nH]c(=O)c(CN(CCN(CC)CC)C(=O)NC3CCCCC3)cc2c1 | inconclusive: 35.5 µM [inhibitor, single point]
CC(C)CCNC(=O)C1CCN(Cc2cccc(OCc3ccccc3)c2)CC1 | inconclusive: 11.2 µM [inhibitor, partial curve, poor fit]
COc1ccc(-c2nnc(-c3ccc(N)cc3)o2)cc1 | inactive
CCC(Sc1nc2n[nH]c(C)c2c(=N)n1-c1ccc(C)c(Cl)c1)C(=O)N1CCOCC1 (stereo not drawn) | inconclusive: 20 µM [inhibitor, single point]
CC12c3ccccc3C(c3ccccc31)C1C(=O)N(Cc3cccnc3)C(=O)C12 (stereo not drawn) | inconclusive: 25.9 µM [activator, partial curve, poor fit]
O=c1c2cnn(-c3ccc(F)cc3)c2ncn1Cc1ccc(F)cc1 | inconclusive: 12.6 µM [inhibitor, single point]
COCc1cc(CN2CCN(Cc3ccsc3)C(CCO)C2)ccc1OC (stereo not drawn) | inactive
Cc1sc2nc(SC(C)C)nc(N)c2c1C | inconclusive: 0.164 µM [inhibitor, partial curve, poor fit]
Cc1cccc(NC(=O)Cc2ccc(-n3c(C)nc4cccnc43)cc2)c1C | inconclusive: 10 µM [inhibitor, partial curve, poor fit]
Cc1cc(N2CCN(C(=O)c3ccco3)CC2)n2nc(-c3cccc(Cl)c3)cc2n1 | active: 25.9 µM
COC(=O)[C@@H]1CC[C@H](C)[C@@H](c2ccc(C)cc2)N1C(=O)c1ccc(/C=N/OC[C@@H](O)[C@H]2O[C@@H]3OC(C)(C)O[C@@H]3[C@H]2O)cc1 | inconclusive: 29.1 µM [inhibitor, single point]
CCOc1ccc2nc(NC(=O)c3cc(=O)c4cc(C)cc(C)c4o3)sc2c1 | inactive
CC(C)(C)NS(=O)(=O)c1ccc(OCC(=O)N2CCN(Cc3ccccc3)CC2)cc1 | inconclusive: 7.08 µM [inhibitor, partial curve, poor fit]
Cc1cccc(NC(=O)c2ccc(N(C)C3CCCCC3)c([N+](=O)[O-])c2)n1 | inconclusive: 25.1 µM [inhibitor, single point]
Cc1ccc(OCC(=O)Nc2nc(-c3ccccn3)cs2)c(C)c1 | inactive
O=C(/C=C/c1ccc2c(c1)OCO2)NCCSCc1ccc(Cl)cc1 | inconclusive: 25.1 µM [inhibitor, single point]
CSc1ncc(C(=O)Nc2ccc(C(C)=O)cc2)c(-c2ccccc2)n1 | inactive
CCN(CC)S(=O)(=O)c1ccc2oc(C(=O)Nc3ccc(OC)cc3OC)c(C)c2c1 | active: 6.51 µM
COc1ccccc1NC(CC(=O)c1ccccc1)C(=O)OCC(=O)c1ccc(C)cc1 (stereo not drawn) | inactive
COc1ccc(NC(=O)c2cn3c4c(ccc(Cl)c4c2=O)OC(C)C3)cc1OC (stereo not drawn) | inactive
Cc1ccc(NC(=O)CC(C)S(=O)(=O)c2ccc3c(c2)NC(=O)CO3)cc1C (stereo not drawn) | inactive
CCOCCn1c(CN2CCC(Cc3ccccc3)CC2)nc2c1c(=O)n(C)c(=O)n2C | inconclusive: 16.4 µM [inhibitor, single point]
O=[N+]([O-])c1ccc(-c2ccc(C=Nc3cccc4ccccc34)o2)cc1 | inactive

Nothing new here: entries from further up.
Compound | Potency
CCC(Sc1nc2n[nH]c(C)c2c(=N)n1-c1ccc(C)c(Cl)c1)C(=O)N1CCOCC1 (stereo not drawn) | inconclusive: 20 µM [inhibitor, single point]
CC12c3ccccc3C(c3ccccc31)C1C(=O)N(Cc3cccnc3)C(=O)C12 (stereo not drawn) | inconclusive: 25.9 µM [activator, partial curve, poor fit]
O=c1c2cnn(-c3ccc(F)cc3)c2ncn1Cc1ccc(F)cc1 | inconclusive: 12.6 µM [inhibitor, single point]
COCc1cc(CN2CCN(Cc3ccsc3)C(CCO)C2)ccc1OC (stereo not drawn) | inactive
Cc1sc2nc(SC(C)C)nc(N)c2c1C | inconclusive: 0.164 µM [inhibitor, partial curve, poor fit]
Cc1cccc(NC(=O)Cc2ccc(-n3c(C)nc4cccnc43)cc2)c1C | inconclusive: 10 µM [inhibitor, partial curve, poor fit]
Cc1cc(N2CCN(C(=O)c3ccco3)CC2)n2nc(-c3cccc(Cl)c3)cc2n1 | active: 25.9 µM
COC(=O)[C@@H]1CC[C@H](C)[C@@H](c2ccc(C)cc2)N1C(=O)c1ccc(/C=N/OC[C@@H](O)[C@H]2O[C@@H]3OC(C)(C)O[C@@H]3[C@H]2O)cc1 | inconclusive: 29.1 µM [inhibitor, single point]
CCOc1ccc2nc(NC(=O)c3cc(=O)c4cc(C)cc(C)c4o3)sc2c1 | inactive
CC(C)(C)NS(=O)(=O)c1ccc(OCC(=O)N2CCN(Cc3ccccc3)CC2)cc1 | inconclusive: 7.08 µM [inhibitor, partial curve, poor fit]
Cc1cccc(NC(=O)c2ccc(N(C)C3CCCCC3)c([N+](=O)[O-])c2)n1 | inconclusive: 25.1 µM [inhibitor, single point]
Cc1ccc(OCC(=O)Nc2nc(-c3ccccn3)cs2)c(C)c1 | inactive
O=C(/C=C/c1ccc2c(c1)OCO2)NCCSCc1ccc(Cl)cc1 | inconclusive: 25.1 µM [inhibitor, single point]
CSc1ncc(C(=O)Nc2ccc(C(C)=O)cc2)c(-c2ccccc2)n1 | inactive
CCN(CC)S(=O)(=O)c1ccc2oc(C(=O)Nc3ccc(OC)cc3OC)c(C)c2c1 | active: 6.51 µM
COc1ccccc1NC(CC(=O)c1ccccc1)C(=O)OCC(=O)c1ccc(C)cc1 (stereo not drawn) | inactive
COc1ccc(NC(=O)c2cn3c4c(ccc(Cl)c4c2=O)OC(C)C3)cc1OC (stereo not drawn) | inactive
Cc1ccc(NC(=O)CC(C)S(=O)(=O)c2ccc3c(c2)NC(=O)CO3)cc1C (stereo not drawn) | inactive

Further compounds follow:

Compound | Potency
COc1ccc(Nc2cc(C(=O)NCc3ccccc3)c3ccccc3n2)c(OC)c1 | inconclusive: 20 µM [inhibitor, single point]
COc1ccc2c(CNCCc3ccccc3)c(C(=O)O)n(Cc3cccc(F)c3)c2c1 | inconclusive: 11.2 µM [inhibitor, single point]
Cc1ccc(Cl)c2sc(N3CCN(C(=O)c4ccco4)CC3)nc12 | inconclusive: 0.631 µM [inhibitor, full curve, poor fit]
COc1ccc(-c2noc(-c3cccc(OC)c3OC)n2)cc1 | inconclusive: 4.47 µM [activator, single point]
Cc1ccccc1Nc1nc(Nc2ccccc2C)nc(SC2=NCCS2)n1 | inconclusive: 14.6 µM [inhibitor, partial curve, poor fit]
Cc1ccc(C)c(OCC(=O)Nc2ccc3c(c2)OCO3)c1C | inconclusive: 29.1 µM [inhibitor, single point]
Cc1cc(C)c(C#N)c(SCc2nnc(-c3ccccc3)o2)n1 | active: 1.16 µM
Cc1ccsc1/C=C(\C(=O)c1ccc(OC(C)C)cc1)c1nc2ccccc2o1 | inconclusive: 8.91 µM [inhibitor, partial curve, poor fit]
CCc1ccc(-c2nc(CCl)cs2)cc1 | inactive
Cc1nc(N2CCOCC2)c2c(C(=O)N3CCN(c4cccc(C)c4C)CC3)c(C)oc2n1 | inactive
C[C@@H](C(=O)NCc1ccccn1)[C@@H]1C[C@@]1(C)[C@@H](NC(=O)OCc1ccccc1)c1ccccc1 | inconclusive: 18.4 µM [inhibitor, single point]
CCN(CC)c1ccc(/C=N/NC(=O)c2ccc(Br)o2)cc1 | inconclusive: 14.1 µM [inhibitor, single point]
Cc1ccc(NC(=O)c2ccc(CSc3nccc(C)n3)cc2)cc1 | inconclusive: 7.94 µM [inhibitor, partial curve, poor fit]
O=C(NCC(c1ccco1)N1CCN(c2ccccc2F)CC1)C(=O)NC1CCCCC1 (stereo not drawn) | inconclusive: 0.794 µM [activator, partial curve, poor fit]
O=C(CC1SC(N2CCCC2)=NC1=O)Nc1ccc(C(=O)N2CCN(c3cccc(Cl)c3)CC2)cc1 (stereo not drawn) | inconclusive: 35.5 µM [inhibitor, single point]
C[n+]1cnc(-c2ccccc2)cc1-c1ccccc1 | inconclusive: 35.5 µM [activator, single point]
CCc1nnc(N/N=C/c2ccc(N3CCC(C)CC3)c([N+](=O)[O-])c2)n1N | inconclusive: 12.6 µM [inhibitor, partial curve, poor fit]
Cc1cc(NC(=O)CSc2nc3ccccc3c(=O)n2C2CCCC2)no1 | inconclusive: 0.82 µM [inhibitor, partial curve]
CCOc1ccc2oc(=O)cc(CN3CCN(c4ccccc4)CC3)c2c1 | inactive
O=C(NC1CCCC1)C1CCCN(S(=O)(=O)c2ccc(-n3cnnn3)cc2)C1 (stereo not drawn) | inconclusive: 17.8 µM [inhibitor, partial curve, poor fit]
CCCC(=O)NC(c1ccc(Cl)cc1Cl)c1ccc2cccnc2c1O (stereo not drawn) | inconclusive: 2 µM [inhibitor, partial curve, poor fit]
Cc1cnc(C(=O)Nc2cccc3cccnc23)cn1 | active: 1.64 µM
COc1ccc(NC(=O)CN2CCN(c3ccccc3)CC2)cc1 | inconclusive: 3.98 µM [inhibitor, single point]

Compound | Potency
O=c1c(S(=O)(=O)c2ccc(Cl)cc2)cn(Cc2ccccc2F)c2ccc(F)cc12 | inconclusive: 35.5 µM [inhibitor, single point]
COc1cc2ncn(-c3cc(OCc4ccccc4C(F)(F)F)c(C(N)=O)s3)c2cc1OC | inconclusive: 0.25 µM [inhibitor, full curve]
C[C@@H](C(=O)NCc1ccc(S(C)(=O)=O)cc1)[C@H]1C[C@]1(C)[C@H](NC(=O)OCc1ccccc1)c1ccccc1 | inconclusive: 16.4 µM [inhibitor, partial curve, poor fit]
COC(=O)/C=c1\sc2ncnn2c1=O | inactive
COC(=O)Nc1nnc(-c2ccccc2OC)s1 | inconclusive: 14.1 µM [inhibitor, single point]
CCNC(=S)N1CCC(c2nc3ccccc3s2)CC1 | inactive
C[N+](C)(C)CC=O | inactive
COc1ccc(CCNC(=O)c2ccccc2NS(=O)(=O)c2cc(C(=O)O)ccc2OC)cc1 | inactive
CCN(CC)c1ccc(N2C(=O)CSC2=S)cc1 | inconclusive: 12.6 µM [inhibitor, single point]
Cc1cnc(NC(=O)c2sc3ccccc3c2Cl)s1 | inconclusive: 2.51 µM [inhibitor, full curve, poor fit]
Cc1ccc(C)c(NC(=O)NCc2ccc3c(c2)CCN3C(=O)c2ccccc2)c1 | inactive
Clc1ccccc1CSc1ncn(-c2ccccc2)n1 | inconclusive: 18.3 µM [activator, partial curve]
Cc1cc(Cl)ccc1OCC(=O)Nc1ccccc1CO | inconclusive: 28.2 µM [activator, single point]
CC(C)(C)NC(=S)NCc1ccncc1 | inactive
O=C1CC(NNc2ccccc2)C(=O)N1c1cccc(Cl)c1 (stereo not drawn) | inconclusive: 6.31 µM [activator, partial curve, poor fit]
Cc1ccc(Cn2cc(/C=C/C(=O)O)c(-c3ccccc3)n2)cc1 | inactive
CCOC(=O)C1=NN(C(=O)Cc2ccccc2)C(O)(c2ccc(Cl)cc2)C1 (stereo not drawn) | inconclusive: 8.91 µM [activator, partial curve, poor fit]
c1ccc(N(c2ccccc2)c2nc(N3CCCC3)nc(-n3ccnc3)n2)cc1 | active: 1.64 µM
CCOC(=O)N1CCN(C(=O)c2ccccc2N(Cc2ccccc2)S(=O)(=O)c2ccccc2)CC1 | inconclusive: 12.6 µM [inhibitor, partial curve, poor fit]
CCNC(=S)N/N=C1\CCCCc2ccccc21 | inactive
COc1ccc(S(=O)(=O)NNC(=O)c2cc3c4ccccc4n(C)c3s2)cc1 | inconclusive: 1.3 µM [inhibitor, partial curve]
O=C(c1ccccc1)c1ccc2nc(Nc3cc(Cl)ccc3O)c3nncn3c2c1 | inconclusive: 0.562 µM [inhibitor, full curve, poor fit]
